Source: PubChem BioAssay AID743121 (NCATS, 2013)

Purpose: 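Partners whose loss is lethal together with topoisomerase I blockade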 (primary screen)
Cell system: MDA-MB-231 cells, a human breast cancer line
Reagent: single siRNA against human genes, 20 nM siRNA (0.8 pmol per well)
Duration: 120 h (drug added 48 h after transfection, read 72 h later)
Treatment: camptothecin 20 nM (about EC30) for 72 h; vehicle 0.1% DMSO in parallel plates
Measurement: 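CellTiter-Glo ATP signal, scaled to control siRNA as percent viability; sensitisation given as log2 of untreated divided by camptothecin-treated viability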
Scale: log2 vehicle/camptothecin viability: higher = stronger sensitisation to camptothecin
Call rule: 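Each gene scored by redundant siRNA activity (RSA) over its individual siRNA ratios; a gene is called active at p < 0.001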
The deposit covers about 26,000 reagents; this is an unselected part. 167 of them (0.63%) count as active. 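Calls are per gene from RSA p-values that are not deposited; an individual active-marked siRNA can sensitise only weakly.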 Entries without a mark were called inactive. Reagents against one gene are numbered here. Further read-outs or replicates are left out here.

log2 vehicle/camptothecin viability, by target and reagent
SLC6A16 (GeneID 28968): #1 -0.386; #2 0.124; #3 0.0514; #4 -0.673
CAMKV (GeneID 79012): #1 -0.37; #2 -0.345; #3 -0.522; #4 -0.366
MED17 (GeneID 9440): #1 0.14; #2 0.672; #3 0.0893
PRSS22 (GeneID 64063): #1 -0.299; #2 -0.0618; #3 1.55; #4 0.168
SUOX (GeneID 6821): #1 -0.0485; #2 -0.544; #3 -0.232; #4 -0.365
CLCN4 (GeneID 1183): #1 -0.788; #2 -0.00814; #3 -0.34
TAPT1 (GeneID 202018): #1 0.308; #2 -0.124; #3 0.0335; #4 0.273
PKMYT1 (GeneID 9088): #1 0.337; #2 -0.0781; #3 1.27; #4 -0.68

In a second layout: 5 of the entries above.
target | reagent no. | log2 vehicle/camptothecin viability
CAMKV (GeneID 79012) | 1 | -0.37
CAMKV (GeneID 79012) | 2 | -0.345
CAMKV (GeneID 79012) | 3 | -0.522
CAMKV (GeneID 79012) | 4 | -0.366
MED17 (GeneID 9440) | 1 | 0.14
